ChEMBL document CHEMBL1649273, “In vivo activity of a novel anti-methicillin-resistant Staphylococcus aureus cephalosporin, ceftaroline, against vancomycin-susceptible and -resistant Enterococcus faecalis strains in a rabbit endocarditis model: a comparative study with linezolid and vancomycin” (2009)
Converted amounts (≈) assume the structure as drawn.

Experiments:
Enterococcus faecalis [1] = assay: Antibacterial activity against vancomycin-susceptible Enterococcus faecalis EF 12704 by broth microdilution method; type: functional
Enterococcus faecalis [2] = assay: Antibacterial activity against vancomycin-resistant Enterococcus faecalis EF NJ1 by broth microdilution method; type: functional

For `CN[C@H](CC(C)C)C(=O)N[C@H]1C(=O)N[C@@H](CC(N)=O)C(=O)N[C@H]2C(=O)N[C@H]3C(=O)N[C@H](C(=O)N[C@H](C(=O)O)c4cc(O)cc(O)c4-c4cc3ccc4O)[C@H](O)c3ccc(c(Cl)c3)Oc3cc2cc(c3O[C@@H]2O[C@H](CO)[C@@H](O)[C@H](O)[C@H]2O[C@H]2C[C@](C)(N)[C@H](O)[C@H](C)O2)Oc2ccc(cc2Cl)[C@H]1O` [VANCOMYCIN], the MIC (Enterococcus faecalis [1]) was 2 µg/mL (≈ 1.38 µM) and the MIC (Enterococcus faecalis [2]) was over 256 µg/mL.
